# Cleaved PARP after 72 h of treatment

From a melanoma drug combination screen (doi:10.1371/journal.pone.0140310); values rounded.

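Human melanoma cells were exposed to a pair of drugs for 72 h in 1,536-well plates and read by automated microscopy after fixing and staining. Each value is the cleaved-PARP-positive fraction of nuclei relative to DMSO-treated wells, in %, so that 100 equals the control and higher values mean more apoptosis. Every drug was used at one fixed concentration, the higher of two screened. No replicate spread is given; individual values may be noisy. The marker varies much from line to line, for technical or biological reasons.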 This is part of the screen, not chosen by result. An entry leaves out what has no value listed here.

Drugs:
SNS-032: CC(C)(C)c1cnc(CSc2cnc(NC(=O)C3CCNCC3)s2)o1 at 50 nM
T0901317: O=S(=O)(c1ccccc1)N(CC(F)(F)F)c1ccc(C(O)(C(F)(F)F)C(F)(F)F)cc1 at 7000 nM
JZL184: O=C(Oc1ccc([N+](=O)[O-])cc1)N1CCC(C(O)(c2ccc3c(c2)OCO3)c2ccc3c(c2)OCO3)CC1 at 5000 nM
embelin: CCCCCCCCCCCC1=C(O)C(=O)C=C(O)C1=O at 6000 nM
CP-690550: C[C@@H]1CCN(C(=O)CC#N)C[C@@H]1N(C)c1ncnc2[nH]ccc12 at 5000 nM
IMD-0354: O=C(Nc1cc(C(F)(F)F)cc(C(F)(F)F)c1)c1cc(Cl)ccc1O at 80 nM
tamatinib: COc1cc(Nc2ncc(F)c(Nc3ccc4c(n3)NC(=O)C(C)(C)O4)n2)cc(OC)c1OC at 2000 nM
AZD7762: NC(=O)Nc1cc(-c2cccc(F)c2)sc1C(=O)N[C@H]1CCCNC1 at 100 nM
nilotinib: Cc1cn(-c2cc(NC(=O)c3ccc(C)c(Nc4nccc(-c5cccnc5)n4)c3)cc(C(F)(F)F)c2)cn1 at 1000 nM
temozolomide: Cn1nnc2c(C(N)=O)ncn2c1=O at 10000 nM
AS-252424: O=C1NC(=O)/C(=C/c2ccc(-c3ccc(F)cc3O)o2)S1 at 5000 nM
gemcitabine: Nc1ccn([C@@H]2O[C@H](CO)[C@@H](O)C2(F)F)c(=O)n1 at 2 nM
nilutamide: CC1(C)NC(=O)N(c2ccc([N+](=O)[O-])c(C(F)(F)F)c2)C1=O at 5000 nM
ENMD-2076: Cc1cc(Nc2cc(N3CCN(C)CC3)nc(/C=C/c3ccccc3)n2)n[nH]1 at 200 nM

AS-252424 and AZD7762 gave COLO 792: 40.0; A2058: 167; RPMI-7951: 212; WM1745: 121; MZ2-MEL: 194; IPC-298: 272.
gemcitabine and AS-252424 gave COLO 792: 154; A2058: 152; RPMI-7951: 311; MZ2-MEL: 148; IPC-298: 215.
SNS-032 and embelin gave COLO 792: 101; A2058: 133; RPMI-7951: 395; WM1745: 139; MZ2-MEL: 160; IPC-298: 58.5.
CP-690550 and AS-252424 gave COLO 792: 78.2; A2058: 148; RPMI-7951: 77.7; WM1745: 113; MZ2-MEL: 65.8; IPC-298: 22.3.
nilutamide and nilotinib gave COLO 792: 98.4; A2058: 133; RPMI-7951: 160; WM1745: 138; MZ2-MEL: 83.2; IPC-298: 70.7.
IMD-0354 and ENMD-2076 gave COLO 792: 129; A2058: 138; RPMI-7951: 63.5; WM1745: 88.3; MZ2-MEL: 133; IPC-298: 102.
temozolomide and IMD-0354 gave COLO 792: 146; A2058: 390; RPMI-7951: 66.8; WM1745: 93.0; MZ2-MEL: 192; IPC-298: 63.3.
tamatinib and nilotinib gave COLO 792: 145; A2058: 182; RPMI-7951: 501; WM1745: 165; MZ2-MEL: 203; IPC-298: 50.5.
CP-690550 and embelin gave COLO 792: 86.5; A2058: 70.0; RPMI-7951: 60.5; WM1745: 92.2; MZ2-MEL: 37.6; IPC-298: 81.7.
AZD7762 and ENMD-2076 gave COLO 792: 407; A2058: 169; RPMI-7951: 144; WM1745: 126; MZ2-MEL: 180; IPC-298: 162.
AS-252424 and nilutamide gave COLO 792: 420; A2058: 104; RPMI-7951: 57.2; WM1745: 112; MZ2-MEL: 151; IPC-298: 65.8.
embelin and temozolomide gave COLO 792: 102; A2058: 355; RPMI-7951: 143; WM1745: 135; MZ2-MEL: 61.7; IPC-298: 113.
AZD7762 and nilutamide gave COLO 792: 239; A2058: 178; RPMI-7951: 314; WM1745: 140; MZ2-MEL: 94.1; IPC-298: 71.6.
temozolomide and gemcitabine gave COLO 792: 226; A2058: 375; RPMI-7951: 111; WM1745: 145; MZ2-MEL: 29.4; IPC-298: 171.
SNS-032 and tamatinib gave COLO 792: 282; A2058: 252; RPMI-7951: 529; WM1745: 343; MZ2-MEL: 189; IPC-298: 71.7.
T0901317 and nilotinib gave COLO 792: 147; A2058: 61.7; RPMI-7951: 59.9; MZ2-MEL: 40.7; IPC-298: 108.
AZD7762 and gemcitabine gave COLO 792: 2740; A2058: 2640; RPMI-7951: 191; WM1745: 332; MZ2-MEL: 1120; IPC-298: 1730.
SNS-032 and gemcitabine gave COLO 792: 227; A2058: 156; RPMI-7951: 235; WM1745: 149; MZ2-MEL: 179; IPC-298: 126.
nilutamide and T0901317 gave COLO 792: 102; A2058: 98.0; RPMI-7951: 69.8; WM1745: 152; MZ2-MEL: 122; IPC-298: 145.
tamatinib and JZL184 gave COLO 792: 129; A2058: 153; RPMI-7951: 194; WM1745: 325; MZ2-MEL: 150; IPC-298: 102.
IMD-0354 and T0901317 gave COLO 792: 85.3; A2058: 66.6; RPMI-7951: 42.5; MZ2-MEL: 99.4; IPC-298: 125.
embelin and nilotinib gave COLO 792: 82.1; A2058: 74.9; RPMI-7951: 95.5; MZ2-MEL: 24.9; IPC-298: 36.2.
JZL184 and nilotinib gave COLO 792: 141; A2058: 117; RPMI-7951: 30.2; MZ2-MEL: 121; IPC-298: 47.2.
temozolomide and CP-690550 gave COLO 792: 111; A2058: 498; RPMI-7951: 151; WM1745: 84.7; MZ2-MEL: 239; IPC-298: 44.1.
ENMD-2076 and tamatinib gave COLO 792: 428; A2058: 135; RPMI-7951: 230; WM1745: 219; MZ2-MEL: 140; IPC-298: 41.3.
IMD-0354 and AZD7762 gave COLO 792: 543; A2058: 239; RPMI-7951: 99.7; WM1745: 257; MZ2-MEL: 48.9; IPC-298: 74.0.
AS-252424 and nilotinib gave COLO 792: 121; A2058: 152; RPMI-7951: 100; MZ2-MEL: 180; IPC-298: 49.2.
embelin and IMD-0354 gave COLO 792: 63.9; A2058: 109; RPMI-7951: 129; IPC-298: 51.8.
ENMD-2076 and JZL184 gave COLO 792: 196; A2058: 109; RPMI-7951: 62.3; MZ2-MEL: 78.0; IPC-298: 85.7.
T0901317 and gemcitabine gave COLO 792: 97.5; A2058: 197; RPMI-7951: 71.0; MZ2-MEL: 95.3; IPC-298: 403.
T0901317 and SNS-032 gave COLO 792: 76.7; A2058: 137; RPMI-7951: 121; WM1745: 326; IPC-298: 57.6.
AS-252424 and JZL184 gave COLO 792: 81.4; A2058: 86.9; RPMI-7951: 191; WM1745: 77.0; MZ2-MEL: 100; IPC-298: 86.2.

The last 4 entries again:

{"pair": "ENMD-2076 and JZL184", "COLO 792": 196, "A2058": 109, "RPMI-7951": 62.3, "MZ2-MEL": 78.0, "IPC-298": 85.7}
{"pair": "T0901317 and gemcitabine", "COLO 792": 97.5, "A2058": 197, "RPMI-7951": 71.0, "MZ2-MEL": 95.3, "IPC-298": 403}
{"pair": "T0901317 and SNS-032", "COLO 792": 76.7, "A2058": 137, "RPMI-7951": 121, "WM1745": 326, "IPC-298": 57.6}
{"pair": "AS-252424 and JZL184", "COLO 792": 81.4, "A2058": 86.9, "RPMI-7951": 191, "WM1745": 77.0, "MZ2-MEL": 100, "IPC-298": 86.2}